The values that follow come from PubChem BioAssay AID493014 (National Center for Advancing Translational Sciences (NCATS), 2011).

The assay is described as follows: qHTS Assay to Find Inhibitors of Chronic Active B-Cell Receptor Signaling. To be noted: ABC-DLBCL IkBa-CBG/CBR reporter, luminescence ratio (green luciferase fused to IkBa over red control in TMD8 lymphoma cells), 4 h. Summed up:
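TMD8 ABC-DLBCL cells carrying doxycycline-inducible green luciferase fused to IkappaBalpha plus unfused red luciferase were exposed to compounds (up to 46 uM) for 4 hrs at 37C. Activity came from the overlap-corrected green/red luminescence ratio.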

[1] abbreviates: measured here: CBR red luminescence, cell number.
The mark [2] stands for this setting: measured here: IkBa-CBG green luminescence.

The list shows a part of the results. Shown are side measurements of this screen, not its main read-out; they come without a call. Most of these compounds were active or inconclusive in the main read-out, so they are no random draw. The note in brackets gives the kind of curve behind each potency; many fits are weak.

For orientation: AC50 means the concentration giving half of the maximal activity seen. In the case of `COc1ccc(C2CC(c3cccs3)=Nc3ccccc3S2)cc1` (configuration not stated), the AC50 is 16.4 µM [falling, single point] under setting [1] and 25.9 µM [falling, single point] under setting [2].

On to `COc1ccc(S(=O)(=O)CCC(=O)Nc2cccc(OC)c2)cc1`, for which the AC50 under setting [1] is 0.708 µM [rising, partial curve, poor fit].

As to `COc1ccccc1C1(CC(=O)Nc2nccs2)CCOC(C(C)C)C1` (configuration not stated), the AC50 under setting [1] was 5.01 µM [falling, partial curve, poor fit].

`COc1ccc(C(=O)NC2=Nc3ccccc3N=C(C)C2c2ccccc2)cc1` (configuration not stated): under setting [1], the AC50 is 31.6 µM [falling, single point].

As to `CCOC(=O)c1cc(-c2ccccc2)n(CC(=O)N(C)c2ccc(OC)cc2)c1C`, the AC50 under setting [1] was 1.78 µM [rising, full curve, poor fit].

As for `CCOC(=O)c1ccc(S(=O)(=O)NCC(c2ccc(N(C)C)cc2)c2c[nH]c3ccccc23)cc1` (configuration not stated), the AC50 under setting [2] is 20.6 µM [rising, partial curve, poor fit].

Turning to `O=C(O)c1cccc(NC(=S)NC(=O)c2ccc3ccccc3c2)c1`, the half-maximal activity concentration (AC50) under setting [1] was 4.47 µM [falling, full curve].

As for `CC(C)C(C(=O)Nc1ncn[nH]1)N1C(=O)c2ccccc2C1=O` (configuration not stated), under setting [1], the AC50 was 29.1 µM [falling, single point].

In the case of `Clc1ccc(-c2cc(COc3ccccc3)no2)cc1Cl`, the AC50 under setting [1] was 2.24 µM [rising, full curve, poor fit].

Regarding `CCOC(=O)c1ccccc1NC(=O)COc1ccccc1`, the AC50 under setting [1] is 7.31 µM [falling, partial curve, poor fit].

Consider `COCCNCC(=O)NCC12CC3CC(CC(C3)C1)C2`, for which, under setting [1], the AC50 is 11.6 µM [rising, partial curve, poor fit].

On to `Nc1cc(Cl)nc(N/N=C/c2ccc([N+](=O)[O-])cc2)n1`, for which the AC50 under setting [1] was 6.51 µM [rising, single point].

As for `CCOC(=O)CC(=O)CSc1nc(N)c(C#N)c(-c2ccc(F)cc2)c1C#N`, the AC50 under setting [1] was 7.08 µM [falling, partial curve, poor fit].

`COc1cccc(NC(=O)Nc2cc(C)ccc2F)c1`: the AC50 under setting [1] was 6.31 µM [falling, partial curve].

Turning to `Cc1ccc(C(=O)N(Cc2nc(-c3ccc(C)cc3)no2)C(C)C)cc1`, the concentration at half-maximal activity (AC50) under setting [1] is 4.11 µM [falling, single point].

For the compound `CCOC(=O)c1c(/N=C/C2C(=O)CCCC2=O)sc(C)c1C`, under setting [1], the half-maximal activity concentration (AC50) was 14.6 µM [rising, partial curve, poor fit].

On to `COC(=O)C1CCN(C(=O)c2cc(-c3ccc(Cl)s3)nc3ccccc23)CC1`, for which the AC50 under setting [1] is 29.1 µM [falling, single point].

For the compound `COc1ccc(S(=O)(=O)N2CCOCC2)cc1NC(=O)/C=C/c1ccccc1`, the AC50 under setting [2] was 14.6 µM [falling, partial curve, poor fit].

Take `On1c(-c2ccc(Cl)cc2)nc2ccccc21`: the AC50 under setting [1] is 7.08 µM [falling, partial curve].

In the case of `CC(=O)Nc1cccc(NC(=O)CSc2ccc(C(F)(F)F)cc2[N+](=O)[O-])c1`, the AC50 under setting [1] is 2.82 µM [rising, single point].

With `Cn1c(Sc2ccc(C(F)(F)F)cc2[N+](=O)[O-])nnc1-c1ccccc1`, the AC50 under setting [1] was 1.26 µM [falling, partial curve, poor fit].

As to `O=C(Cc1ccccc1)NCc1ccncc1`, under setting [1], the AC50 was 2.82 µM [falling, full curve].

On to `O=C(COc1ccc(F)cc1Cl)Nc1ccc(S(=O)(=O)Nc2nccs2)cc1`, for which the AC50 under setting [1] was 29.1 µM [falling, single point].

Consider `CCN1CCCC1CNC(=O)C(=O)Nc1ccccc1OC` (configuration not stated), for which the half-maximal activity concentration (AC50) under setting [1] is 3.98 µM [falling, partial curve].

`CC(C)/C=C(/C(=O)c1ccc(Cl)cc1Cl)n1cncn1`: the AC50 under setting [1] is 10 µM [falling, partial curve, poor fit].

In the case of `CCn1c(=N)c(S(=O)(=O)c2ccc(C)cc2)cc2c(=O)n3ccccc3nc21`, the AC50 under setting [1] was 20 µM [rising, partial curve, poor fit].

As to `Oc1ccc(Br)cc1CNc1ccccn1`, under setting [1], the AC50 is 1.78 µM [rising, partial curve, poor fit].

Take `COCCNC(=S)N/N=C(\C)c1ccc(C)c([N+](=O)[O-])c1`: under setting [2], the AC50 is 29.1 µM [falling, single point].

Turning to `COc1ccc(-c2cc(C(=O)Nc3cccc(Cl)c3)no2)cc1`, under setting [1], the AC50 was 3.16 µM [falling, partial curve, poor fit].

Consider `CCC(=O)N1CCc2cc(Br)cc(S(=O)(=O)NCC3CCCO3)c21` (configuration not stated), for which, under setting [1], the AC50 is 0.164 µM [rising, full curve].

In the case of `Cc1ccc2c(c1)[C@H]1[C@H](CO2)[C@H](c2ccccc2)[C@]2(C)C(=O)N(Cc3ccc(Cl)cc3)CC(=O)N12`, the AC50 under setting [1] was 6.51 µM [rising, single point].

As for `CCOC(=O)c1c(-c2ccc(Cl)cc2)c(C#N)c(=O)n(N)c1N`, under setting [1], the AC50 was 10.3 µM [falling, partial curve, poor fit].

In the case of `COc1ccccc1/C=N/NC(=O)c1csc(C)c1C`, the AC50 under setting [1] was 9.2 µM [falling, partial curve].

For the compound `Cc1c(NC(=S)NC(=O)c2cc3ccccc3o2)cccc1C(=O)O`, the AC50 under setting [1] is 1.41 µM [falling, partial curve].

As to `CCOC(=O)C1=C(CSc2nc3c(cc2C#N)CCC3)OC(N)=C(C#N)C1c1ccccc1` (configuration not stated), the concentration at half-maximal activity (AC50) under setting [1] is 15.8 µM [falling, partial curve, poor fit].

Turning to `CCOCC(=O)Nc1ccc(OCc2ccccc2)cc1`, the AC50 under setting [1] is 15.8 µM [rising, partial curve, poor fit].

Take `COC(=O)c1cc(NC(=O)c2ccc(Cn3cc(Cl)cn3)o2)cc(C(=O)OC)c1`: the AC50 under setting [1] is 29.1 µM [falling, single point].

Regarding `CCOC(=O)c1cc(-c2ccc3c(c2)OCO3)nc2onc(C)c12`, under setting [1], the AC50 is 0.103 µM [rising, full curve, poor fit].

On to `COc1cccc(/C=N/NC(=O)NC2CCCCC2)c1O`, for which, under setting [1], the AC50 is 11.2 µM [falling, partial curve, poor fit].

As for `Cc1cc(C)n(Cc2nc3ccccc3n2C)n1`, under setting [1], the AC50 was 2.91 µM [rising, partial curve].

As for `CN(C(=O)COC(=O)c1cc(=O)[nH]c2ccccc12)c1ccccc1`, under setting [1], the AC50 was 29.1 µM [rising, single point].
